Experimental data: publication PMC11318162
These are yes or no findings as the source states them, for the method shown. In cells and extracts the contact can be indirect. Some results given as binding are weak or reduced against the parent protein; the word gives no strength.

The chains behind the UniProt entries cited, without tags or fusion partners.
UniProt Q96P20: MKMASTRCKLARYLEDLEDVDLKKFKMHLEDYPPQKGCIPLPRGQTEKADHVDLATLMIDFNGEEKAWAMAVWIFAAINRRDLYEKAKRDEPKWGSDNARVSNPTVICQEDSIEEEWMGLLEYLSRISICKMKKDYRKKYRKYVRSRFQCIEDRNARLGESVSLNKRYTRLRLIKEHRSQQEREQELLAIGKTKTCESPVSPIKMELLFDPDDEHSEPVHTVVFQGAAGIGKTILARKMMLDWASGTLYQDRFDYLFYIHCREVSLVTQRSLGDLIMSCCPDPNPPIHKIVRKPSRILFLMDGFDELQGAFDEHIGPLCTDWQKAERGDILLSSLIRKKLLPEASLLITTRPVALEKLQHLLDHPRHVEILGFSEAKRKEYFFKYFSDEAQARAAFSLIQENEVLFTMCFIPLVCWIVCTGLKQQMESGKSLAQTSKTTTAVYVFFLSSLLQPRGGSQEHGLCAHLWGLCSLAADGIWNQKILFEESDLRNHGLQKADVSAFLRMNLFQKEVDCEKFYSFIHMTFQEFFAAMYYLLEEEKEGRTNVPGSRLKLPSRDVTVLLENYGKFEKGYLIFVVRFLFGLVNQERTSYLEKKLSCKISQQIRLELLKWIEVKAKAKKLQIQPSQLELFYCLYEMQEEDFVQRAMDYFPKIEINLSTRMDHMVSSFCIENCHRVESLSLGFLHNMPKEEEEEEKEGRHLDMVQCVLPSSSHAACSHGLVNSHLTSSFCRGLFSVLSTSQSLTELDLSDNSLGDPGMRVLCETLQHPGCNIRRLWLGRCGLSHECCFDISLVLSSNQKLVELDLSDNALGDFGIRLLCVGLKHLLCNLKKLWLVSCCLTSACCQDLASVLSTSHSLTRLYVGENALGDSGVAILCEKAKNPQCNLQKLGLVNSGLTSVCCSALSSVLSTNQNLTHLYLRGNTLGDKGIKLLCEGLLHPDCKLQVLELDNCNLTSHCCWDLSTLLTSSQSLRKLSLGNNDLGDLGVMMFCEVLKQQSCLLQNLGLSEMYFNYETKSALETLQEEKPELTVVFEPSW

T1: Ubiquitin-specific peptidase 1 (USP1) (human (endogenous in Nthy-ori 3-1)) (UniProt O94782)
T1 sequence: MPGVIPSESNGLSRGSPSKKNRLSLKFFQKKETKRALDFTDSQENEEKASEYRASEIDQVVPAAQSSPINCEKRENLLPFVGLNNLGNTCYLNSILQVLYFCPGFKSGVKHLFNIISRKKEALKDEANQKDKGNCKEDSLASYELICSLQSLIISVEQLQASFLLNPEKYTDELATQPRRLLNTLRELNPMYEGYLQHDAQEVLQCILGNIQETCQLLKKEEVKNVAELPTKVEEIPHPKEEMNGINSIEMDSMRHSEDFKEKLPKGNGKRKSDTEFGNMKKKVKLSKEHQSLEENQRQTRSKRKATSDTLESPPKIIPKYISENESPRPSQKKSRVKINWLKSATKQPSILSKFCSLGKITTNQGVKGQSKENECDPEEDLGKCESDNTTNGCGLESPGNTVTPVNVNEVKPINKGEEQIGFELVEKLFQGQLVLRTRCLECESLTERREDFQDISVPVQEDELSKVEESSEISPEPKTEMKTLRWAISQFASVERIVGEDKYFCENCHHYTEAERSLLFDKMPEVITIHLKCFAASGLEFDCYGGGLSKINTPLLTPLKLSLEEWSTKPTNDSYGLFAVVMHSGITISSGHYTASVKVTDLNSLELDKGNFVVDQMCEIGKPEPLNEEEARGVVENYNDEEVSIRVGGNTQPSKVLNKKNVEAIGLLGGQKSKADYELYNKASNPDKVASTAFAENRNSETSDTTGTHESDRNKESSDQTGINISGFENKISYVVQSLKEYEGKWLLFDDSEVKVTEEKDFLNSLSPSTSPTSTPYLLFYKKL


Biological target: T1, Ubiquitin-specific peptidase 1 (USP1) (human (endogenous in Nthy-ori 3-1))
Experiment: co-IP; endogenous proteins in Nthy-ori 3-1 cells; cells lysed in RIPA lysis buffer, lysates incubated with primary antibodies overnight at 4 °C, then protein A/G agarose 2.5 h at 4 °C, eluted and immunoblotted

| binding | Molecule |
| --- | --- |
| binds | NLRP3 (from UniProt Q96P20 1-1036) |
| binds | absent in melanoma 2 (AIM2) (protein, UniProt O14862 1-343) MESKYKEILLLTGLDNITDEELDRFKFFLSDEFNIATGKLHTANRIQVATLMIQNAGAVSAVMKTIRIFQKLNYMLLAKRLQEEKEKVDKQYKSVTKPKPLSQAEMSPAASAAIRNDVAKQRAAPKVSPHVKPEQKQMVAQQESIREGFQKRCLPVMVLKAKKPFTFETQEGKQEMFHATVATEKEFFFVKVFNTLLKDKFIPKRIIIIARYYRHSGFLEVNSASRVLDAESDQKVNVPLNIIRKAGETPKINTLQTQPLGTIVNGLFVVQKVTEKKKNILFDLSDNTGKMEVLGVRNEDTMKCKEGDKVRLTFFTLSKNGEKLQLTSGVHSTIKVIKAKKKT |
